Results are given in words; binding and its absence hold for the method and conditions named. In cells and extracts the contact can be indirect. Some entries that bind do so weakly or less than the wild type.

The chains behind the UniProt entries cited, without tags or fusion partners. Where a name states a change or a piece, a line headed by the entry shows the natural chain unless it says otherwise. A line that says so, or that is headed by a name, gives the form on record, which may keep a tag or linker.
UniProt Q14258: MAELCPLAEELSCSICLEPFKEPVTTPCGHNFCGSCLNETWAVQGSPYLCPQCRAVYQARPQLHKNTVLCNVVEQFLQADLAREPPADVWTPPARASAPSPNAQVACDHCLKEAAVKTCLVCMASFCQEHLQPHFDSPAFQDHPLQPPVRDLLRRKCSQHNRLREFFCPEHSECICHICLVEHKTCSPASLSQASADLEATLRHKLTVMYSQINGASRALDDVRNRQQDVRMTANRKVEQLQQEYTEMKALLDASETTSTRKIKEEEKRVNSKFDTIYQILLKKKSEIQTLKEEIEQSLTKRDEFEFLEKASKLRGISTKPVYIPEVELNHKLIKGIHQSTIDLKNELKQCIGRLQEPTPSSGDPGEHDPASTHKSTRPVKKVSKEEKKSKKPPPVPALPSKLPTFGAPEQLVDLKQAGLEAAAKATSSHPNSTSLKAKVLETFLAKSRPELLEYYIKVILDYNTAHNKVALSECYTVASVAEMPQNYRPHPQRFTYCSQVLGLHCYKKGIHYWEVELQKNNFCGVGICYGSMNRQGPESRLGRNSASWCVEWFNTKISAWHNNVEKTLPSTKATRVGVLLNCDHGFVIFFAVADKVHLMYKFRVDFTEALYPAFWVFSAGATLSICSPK
mCherry-TRIM25 ΔPTFG (Q14258, form named): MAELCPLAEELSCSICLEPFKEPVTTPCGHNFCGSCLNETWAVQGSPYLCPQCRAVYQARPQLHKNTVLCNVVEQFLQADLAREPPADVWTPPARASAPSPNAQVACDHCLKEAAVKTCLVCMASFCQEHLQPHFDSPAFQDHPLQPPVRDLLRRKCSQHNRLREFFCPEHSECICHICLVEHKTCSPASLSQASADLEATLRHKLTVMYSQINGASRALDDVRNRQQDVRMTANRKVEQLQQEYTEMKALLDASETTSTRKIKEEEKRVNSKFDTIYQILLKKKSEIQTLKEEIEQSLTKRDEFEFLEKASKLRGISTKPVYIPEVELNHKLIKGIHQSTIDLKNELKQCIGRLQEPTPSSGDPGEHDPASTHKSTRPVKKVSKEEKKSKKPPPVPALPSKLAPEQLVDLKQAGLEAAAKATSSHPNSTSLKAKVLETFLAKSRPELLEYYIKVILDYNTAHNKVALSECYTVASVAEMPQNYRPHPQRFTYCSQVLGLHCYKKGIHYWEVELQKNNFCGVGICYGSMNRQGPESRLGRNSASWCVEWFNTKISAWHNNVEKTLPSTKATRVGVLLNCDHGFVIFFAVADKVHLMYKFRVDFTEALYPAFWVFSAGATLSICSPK
mCherry-TRIM25 PTFG^AAAA (Q14258, form named): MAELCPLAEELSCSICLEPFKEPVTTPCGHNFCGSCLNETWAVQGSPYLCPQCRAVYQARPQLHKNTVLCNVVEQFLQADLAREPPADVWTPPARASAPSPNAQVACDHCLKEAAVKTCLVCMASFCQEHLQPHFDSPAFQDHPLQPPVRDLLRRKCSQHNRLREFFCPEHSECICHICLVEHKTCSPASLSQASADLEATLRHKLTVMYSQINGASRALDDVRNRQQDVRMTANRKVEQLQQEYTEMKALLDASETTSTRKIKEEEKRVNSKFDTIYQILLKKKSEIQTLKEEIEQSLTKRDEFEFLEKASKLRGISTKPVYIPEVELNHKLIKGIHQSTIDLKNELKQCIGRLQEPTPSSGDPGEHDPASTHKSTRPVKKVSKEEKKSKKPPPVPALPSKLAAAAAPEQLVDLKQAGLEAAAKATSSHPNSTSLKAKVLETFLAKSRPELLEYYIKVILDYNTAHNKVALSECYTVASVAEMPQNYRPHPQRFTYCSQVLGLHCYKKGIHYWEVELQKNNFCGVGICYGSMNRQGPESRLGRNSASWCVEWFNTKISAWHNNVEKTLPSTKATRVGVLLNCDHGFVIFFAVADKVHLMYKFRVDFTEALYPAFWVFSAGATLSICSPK
UniProt Q13283: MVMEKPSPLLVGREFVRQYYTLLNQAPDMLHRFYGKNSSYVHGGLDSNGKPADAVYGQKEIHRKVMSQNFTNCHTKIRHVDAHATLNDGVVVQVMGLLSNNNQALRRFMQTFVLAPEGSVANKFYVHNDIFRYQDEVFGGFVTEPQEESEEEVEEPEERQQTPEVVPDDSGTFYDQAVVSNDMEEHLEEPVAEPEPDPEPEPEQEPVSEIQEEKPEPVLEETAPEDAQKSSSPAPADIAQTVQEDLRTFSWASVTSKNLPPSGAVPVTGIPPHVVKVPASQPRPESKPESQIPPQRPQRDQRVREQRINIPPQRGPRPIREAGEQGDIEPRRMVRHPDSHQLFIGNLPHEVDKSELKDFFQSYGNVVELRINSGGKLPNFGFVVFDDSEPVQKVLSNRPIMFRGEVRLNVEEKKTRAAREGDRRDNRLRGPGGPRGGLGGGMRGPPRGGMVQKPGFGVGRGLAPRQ

The target in test [1] is endogenous TRIM25 (human (endogenous in HEK293T)) (UniProt Q14258). Kind of test: co-IP; endogenous proteins, precipitated with an antibody against TRIM25; with or without poly(I:C).
For test [2], the target named is mCherry-TRIM25 ΔPTFG (human) (UniProt Q14258). Kind of test: co-IP; HEK293T transfected with mCherry-TRIM25 FL or mutants for 24 h; lysates precipitated with mCherry beads, immunoblot. For orientation: In western blotting, separated proteins are transferred to a membrane and probed.
The target of test [3] is mCherry-TRIM25 FL (human) (UniProt Q14258). The test is described as above.
Test [4] concerns the target mCherry-TRIM25 PTFG^AAAA (human) (UniProt Q14258). The test is described as above.

In the case of “endogenous G3BP1 (from UniProt Q13283 1-466)”, the binding result in test [1] is recorded as “binds”; in test [2], “no binding”; in test [3] it was “binds”; in test [4], “no binding”.
